Results are given in words; binding and its absence hold for the method and conditions named. Binding seen in cells or lysates may run through a third protein. Some results given as binding are weak or reduced against the parent protein; the word gives no strength. For some of these results: Tags and fused reporters may be left off the sequences shown.
Columns and labels:
[1] = molecular target: T1, synectin-binding RhoA exchange factor (Syx) (UniProt O94827); experiment: co-IP (discussion of the example)
T1 sequence (looked up): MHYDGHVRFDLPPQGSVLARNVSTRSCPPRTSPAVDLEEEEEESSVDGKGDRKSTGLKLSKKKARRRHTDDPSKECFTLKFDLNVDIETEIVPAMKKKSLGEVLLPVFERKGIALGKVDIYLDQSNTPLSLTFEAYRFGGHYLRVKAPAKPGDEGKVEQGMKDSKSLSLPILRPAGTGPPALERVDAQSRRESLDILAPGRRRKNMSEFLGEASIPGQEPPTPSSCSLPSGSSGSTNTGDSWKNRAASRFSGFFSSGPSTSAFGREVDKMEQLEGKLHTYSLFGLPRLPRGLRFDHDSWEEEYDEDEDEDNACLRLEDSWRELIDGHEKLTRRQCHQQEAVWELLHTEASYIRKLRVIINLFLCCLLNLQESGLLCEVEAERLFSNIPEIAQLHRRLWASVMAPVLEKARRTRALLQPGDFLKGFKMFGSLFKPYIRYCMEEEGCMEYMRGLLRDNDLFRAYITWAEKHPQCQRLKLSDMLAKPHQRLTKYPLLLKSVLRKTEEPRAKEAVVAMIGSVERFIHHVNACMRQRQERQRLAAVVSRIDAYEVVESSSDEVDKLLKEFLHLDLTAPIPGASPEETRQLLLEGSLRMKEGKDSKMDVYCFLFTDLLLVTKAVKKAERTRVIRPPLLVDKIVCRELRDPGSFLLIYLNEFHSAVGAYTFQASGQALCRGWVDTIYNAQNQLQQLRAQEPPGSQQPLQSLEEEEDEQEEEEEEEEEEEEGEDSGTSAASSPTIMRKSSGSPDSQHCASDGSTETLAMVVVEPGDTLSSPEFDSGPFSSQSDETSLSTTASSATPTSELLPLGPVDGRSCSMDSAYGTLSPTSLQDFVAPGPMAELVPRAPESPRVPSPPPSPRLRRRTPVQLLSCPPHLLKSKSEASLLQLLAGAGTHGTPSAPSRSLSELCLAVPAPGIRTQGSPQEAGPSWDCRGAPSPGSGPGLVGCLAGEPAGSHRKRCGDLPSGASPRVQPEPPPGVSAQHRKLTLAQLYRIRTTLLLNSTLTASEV

Chains of the proteins cited; added tags and fusions are not shown. Residues count along the entry.
UniProt Q13464, residues 2-1354: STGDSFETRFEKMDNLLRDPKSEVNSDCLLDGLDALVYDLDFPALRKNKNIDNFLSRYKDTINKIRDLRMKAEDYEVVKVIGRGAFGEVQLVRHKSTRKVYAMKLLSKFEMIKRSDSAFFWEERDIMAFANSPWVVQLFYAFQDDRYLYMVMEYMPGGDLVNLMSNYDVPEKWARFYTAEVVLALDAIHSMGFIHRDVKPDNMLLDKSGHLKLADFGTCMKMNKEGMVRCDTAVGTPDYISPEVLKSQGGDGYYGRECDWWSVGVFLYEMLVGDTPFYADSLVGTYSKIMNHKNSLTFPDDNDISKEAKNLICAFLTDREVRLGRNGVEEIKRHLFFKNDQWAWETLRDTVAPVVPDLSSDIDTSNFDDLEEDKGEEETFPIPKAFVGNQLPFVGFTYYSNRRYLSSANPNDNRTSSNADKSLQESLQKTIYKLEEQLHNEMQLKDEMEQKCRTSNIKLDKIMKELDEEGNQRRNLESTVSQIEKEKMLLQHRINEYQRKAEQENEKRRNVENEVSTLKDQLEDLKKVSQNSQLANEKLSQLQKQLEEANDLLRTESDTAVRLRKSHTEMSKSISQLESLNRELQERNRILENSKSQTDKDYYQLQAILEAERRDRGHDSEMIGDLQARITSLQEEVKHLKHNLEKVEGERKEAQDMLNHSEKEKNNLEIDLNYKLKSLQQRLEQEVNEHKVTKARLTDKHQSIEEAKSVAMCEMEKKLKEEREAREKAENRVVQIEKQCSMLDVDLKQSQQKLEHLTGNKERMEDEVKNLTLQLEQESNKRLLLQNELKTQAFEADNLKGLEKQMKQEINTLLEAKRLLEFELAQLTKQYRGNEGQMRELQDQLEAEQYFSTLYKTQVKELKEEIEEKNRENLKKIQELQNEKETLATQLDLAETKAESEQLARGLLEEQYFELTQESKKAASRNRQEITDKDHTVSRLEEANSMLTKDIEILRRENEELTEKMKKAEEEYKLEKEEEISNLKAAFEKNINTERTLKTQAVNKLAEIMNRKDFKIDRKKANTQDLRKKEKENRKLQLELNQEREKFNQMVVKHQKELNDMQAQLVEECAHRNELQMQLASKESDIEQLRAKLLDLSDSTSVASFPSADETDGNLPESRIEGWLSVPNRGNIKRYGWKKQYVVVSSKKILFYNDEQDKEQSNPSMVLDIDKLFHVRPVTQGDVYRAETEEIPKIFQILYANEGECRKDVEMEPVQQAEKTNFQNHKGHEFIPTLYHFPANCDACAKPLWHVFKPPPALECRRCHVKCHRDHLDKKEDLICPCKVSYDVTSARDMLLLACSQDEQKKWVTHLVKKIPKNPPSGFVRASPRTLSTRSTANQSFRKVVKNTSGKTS

p190RhoGAP [2] = molecular target: T2, p190RhoGAP (UniProt Q9NRY4); experiment: co-IP (discussion of the example)
T2 sequence (looked up): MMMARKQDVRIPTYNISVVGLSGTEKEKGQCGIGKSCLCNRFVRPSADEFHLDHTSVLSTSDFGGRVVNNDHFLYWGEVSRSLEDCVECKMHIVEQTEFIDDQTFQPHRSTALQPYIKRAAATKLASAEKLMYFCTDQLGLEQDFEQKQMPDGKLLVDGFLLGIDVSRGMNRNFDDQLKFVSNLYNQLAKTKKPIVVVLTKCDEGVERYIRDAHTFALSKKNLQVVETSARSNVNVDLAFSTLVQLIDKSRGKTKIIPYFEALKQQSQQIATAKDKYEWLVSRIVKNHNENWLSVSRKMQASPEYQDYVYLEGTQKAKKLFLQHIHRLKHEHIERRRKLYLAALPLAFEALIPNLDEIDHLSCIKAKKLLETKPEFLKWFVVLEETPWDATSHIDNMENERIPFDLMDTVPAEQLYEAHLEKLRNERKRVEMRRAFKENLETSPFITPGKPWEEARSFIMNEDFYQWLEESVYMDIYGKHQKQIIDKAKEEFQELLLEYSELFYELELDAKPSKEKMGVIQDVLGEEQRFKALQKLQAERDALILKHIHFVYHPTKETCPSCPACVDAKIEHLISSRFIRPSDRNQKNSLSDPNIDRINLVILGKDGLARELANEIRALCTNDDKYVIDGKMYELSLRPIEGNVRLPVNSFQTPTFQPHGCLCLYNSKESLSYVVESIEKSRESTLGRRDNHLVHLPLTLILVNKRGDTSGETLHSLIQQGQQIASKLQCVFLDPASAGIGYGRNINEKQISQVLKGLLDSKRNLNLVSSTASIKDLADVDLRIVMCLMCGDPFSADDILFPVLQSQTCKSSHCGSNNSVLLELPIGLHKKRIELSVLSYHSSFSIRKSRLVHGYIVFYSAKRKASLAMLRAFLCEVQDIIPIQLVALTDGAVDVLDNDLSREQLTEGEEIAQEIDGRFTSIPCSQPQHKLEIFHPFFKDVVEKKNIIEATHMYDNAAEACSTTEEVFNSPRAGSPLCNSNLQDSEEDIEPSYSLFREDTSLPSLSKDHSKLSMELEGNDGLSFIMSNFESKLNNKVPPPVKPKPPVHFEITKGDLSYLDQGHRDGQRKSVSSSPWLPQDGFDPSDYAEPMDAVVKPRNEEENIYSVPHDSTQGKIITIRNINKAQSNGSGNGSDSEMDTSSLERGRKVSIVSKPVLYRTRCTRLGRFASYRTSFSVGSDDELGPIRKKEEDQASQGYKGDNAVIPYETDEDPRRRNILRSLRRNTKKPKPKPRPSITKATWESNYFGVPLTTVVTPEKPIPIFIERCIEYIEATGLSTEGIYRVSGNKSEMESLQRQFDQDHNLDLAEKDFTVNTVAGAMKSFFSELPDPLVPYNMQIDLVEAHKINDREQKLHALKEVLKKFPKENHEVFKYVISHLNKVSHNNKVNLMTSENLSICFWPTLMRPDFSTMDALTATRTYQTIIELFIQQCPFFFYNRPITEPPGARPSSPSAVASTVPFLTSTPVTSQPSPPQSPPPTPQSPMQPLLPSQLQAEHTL

[3] = molecular target: T1, synectin-binding RhoA exchange factor (Syx); experiment: co-IP with anti-flag antibody, transfected HEK293 cells
p190RhoGAP [4] = molecular target: T2, p190RhoGAP; experiment: as above
[5] = molecular target: T1, synectin-binding RhoA exchange factor (Syx); experiment: co-IP (summary of the example)
p190RhoGAP [6] = molecular target: T2, p190RhoGAP; experiment: co-IP (summary of the example)
[7] = molecular target: Rho-associated coiled-coil kinase 1 (ROCK1) (UniProt Q13464); experiment: co-IP (summary of the example)
[8] = molecular target: Rho-associated coiled-coil kinase 1 (ROCK1) (UniProt Q13464); experiment: co-IP (discussion of the example)

Measured: binding

B1: flag-RhoE (protein, not shown: small tags and cut ends)
chain: MKERRASQKLSSKSIMDPNQNVKCKIVVVGDSQCGKTALLHVFAKDCFPENYVPTVFENYTASFEIDTQRIELSLWDTSGSPYYDNVRPLSYPDSDAVLICFDISRPETLDSVLKKWKGEIQEFCPNTKMLLVGCKSDLRTDVSTLVELSNHRQTPVSYDQGANMAKQIGAATYIECSALQSENSVRDIFHVATLACVNKTNKNVKRNKSQRATKRISHMPSRPELSAVATDLRKDKAKSC
binds: [1] | p190RhoGAP [2] | [3] | p190RhoGAP [4]

B2: flag-RhoEα (protein, not shown: small tags and cut ends)
chain: MDPNQNVKCKIVVVGDSQCGKTALLHVFAKDCFPENYVPTVFENYTASFEIDTQRIELSLWDTSGSPYYDNVRPLSYPDSDAVLICFDISRPETLDSVLKKWKGEIQEFCPNTKMLLVGCKSDLRTDVSTLVELSNHRQTPVSYDQGANMAKQIGAATYIECSALQSENSVRDIFHVATLACVNKTNKNVKRNKSQRATKRISHMPSRPELSAVATDLRKDKAKSC
not listed: [7] | [8]
binds: all other assays above

B3: RhoEα, short isoform of RhoE (protein)
chain: B2 chain
binds: [7] | [8]

B4: RND3, referred to alternately as RhoE (protein)
chain: B1 chain
binds: [8]
